Assay results: the supplement of paper PMC12067093, “Discovery and optimisation of a covalent ligand for TRIM25 and its application to targeted protein ubiquitination” (Chemical Science, 2025)
Some of the results follow.

By UniProt entry, the sequences of proteins in these tests, tags left out. Where a name states a change or a piece, a line headed by the entry shows the natural chain unless it says otherwise.
UniProt Q9BZF1: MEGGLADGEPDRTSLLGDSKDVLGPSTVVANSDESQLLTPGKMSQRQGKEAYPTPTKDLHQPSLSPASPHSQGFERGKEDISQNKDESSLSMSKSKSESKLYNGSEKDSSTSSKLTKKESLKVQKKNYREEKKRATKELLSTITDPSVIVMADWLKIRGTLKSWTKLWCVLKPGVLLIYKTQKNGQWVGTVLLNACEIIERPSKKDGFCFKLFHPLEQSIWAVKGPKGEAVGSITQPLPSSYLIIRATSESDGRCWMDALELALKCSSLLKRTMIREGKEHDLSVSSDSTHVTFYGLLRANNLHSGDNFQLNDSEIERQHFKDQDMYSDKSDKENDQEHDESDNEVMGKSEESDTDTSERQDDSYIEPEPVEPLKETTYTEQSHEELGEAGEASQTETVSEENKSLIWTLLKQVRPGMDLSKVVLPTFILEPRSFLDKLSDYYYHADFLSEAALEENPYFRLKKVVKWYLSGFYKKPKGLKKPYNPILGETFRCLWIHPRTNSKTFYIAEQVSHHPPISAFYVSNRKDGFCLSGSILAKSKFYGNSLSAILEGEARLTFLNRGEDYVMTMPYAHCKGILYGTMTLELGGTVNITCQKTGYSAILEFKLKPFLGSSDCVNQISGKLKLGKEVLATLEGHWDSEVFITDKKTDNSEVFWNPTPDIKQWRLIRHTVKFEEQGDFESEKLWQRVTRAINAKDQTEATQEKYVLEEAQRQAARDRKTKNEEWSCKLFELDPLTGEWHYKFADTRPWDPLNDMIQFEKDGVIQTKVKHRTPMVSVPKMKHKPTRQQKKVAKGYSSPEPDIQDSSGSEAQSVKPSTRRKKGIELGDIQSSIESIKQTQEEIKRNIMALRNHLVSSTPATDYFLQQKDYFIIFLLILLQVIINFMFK
UniProt Q9UQ80: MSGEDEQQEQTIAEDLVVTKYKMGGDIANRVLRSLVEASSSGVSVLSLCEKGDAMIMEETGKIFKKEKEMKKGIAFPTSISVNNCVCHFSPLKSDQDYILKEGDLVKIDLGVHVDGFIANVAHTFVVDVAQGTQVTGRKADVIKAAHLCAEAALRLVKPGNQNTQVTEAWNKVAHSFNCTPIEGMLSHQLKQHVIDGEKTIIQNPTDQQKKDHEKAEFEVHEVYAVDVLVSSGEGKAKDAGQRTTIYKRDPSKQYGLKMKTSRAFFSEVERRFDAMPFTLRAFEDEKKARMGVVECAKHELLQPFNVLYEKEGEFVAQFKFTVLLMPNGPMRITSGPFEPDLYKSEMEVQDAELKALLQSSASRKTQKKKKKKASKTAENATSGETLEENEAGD
UniProt Q9UBD5: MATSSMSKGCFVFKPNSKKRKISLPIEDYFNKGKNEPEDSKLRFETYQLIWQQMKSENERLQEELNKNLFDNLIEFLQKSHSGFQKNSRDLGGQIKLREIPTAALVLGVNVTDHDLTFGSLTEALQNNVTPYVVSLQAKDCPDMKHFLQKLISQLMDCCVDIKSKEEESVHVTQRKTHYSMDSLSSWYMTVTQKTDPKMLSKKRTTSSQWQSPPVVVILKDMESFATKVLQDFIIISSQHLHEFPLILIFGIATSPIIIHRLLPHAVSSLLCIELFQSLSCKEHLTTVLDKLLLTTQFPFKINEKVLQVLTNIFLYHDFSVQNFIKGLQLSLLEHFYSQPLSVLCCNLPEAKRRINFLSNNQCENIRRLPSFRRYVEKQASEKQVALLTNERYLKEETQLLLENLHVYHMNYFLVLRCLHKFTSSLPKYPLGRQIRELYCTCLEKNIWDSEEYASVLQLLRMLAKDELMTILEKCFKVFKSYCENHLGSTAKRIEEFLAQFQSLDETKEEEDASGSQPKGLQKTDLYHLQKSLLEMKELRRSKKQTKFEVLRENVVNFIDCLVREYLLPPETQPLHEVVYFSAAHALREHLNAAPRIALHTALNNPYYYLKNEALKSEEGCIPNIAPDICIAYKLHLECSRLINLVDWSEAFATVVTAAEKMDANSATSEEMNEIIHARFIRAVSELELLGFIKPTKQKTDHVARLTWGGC
UniProt O60313: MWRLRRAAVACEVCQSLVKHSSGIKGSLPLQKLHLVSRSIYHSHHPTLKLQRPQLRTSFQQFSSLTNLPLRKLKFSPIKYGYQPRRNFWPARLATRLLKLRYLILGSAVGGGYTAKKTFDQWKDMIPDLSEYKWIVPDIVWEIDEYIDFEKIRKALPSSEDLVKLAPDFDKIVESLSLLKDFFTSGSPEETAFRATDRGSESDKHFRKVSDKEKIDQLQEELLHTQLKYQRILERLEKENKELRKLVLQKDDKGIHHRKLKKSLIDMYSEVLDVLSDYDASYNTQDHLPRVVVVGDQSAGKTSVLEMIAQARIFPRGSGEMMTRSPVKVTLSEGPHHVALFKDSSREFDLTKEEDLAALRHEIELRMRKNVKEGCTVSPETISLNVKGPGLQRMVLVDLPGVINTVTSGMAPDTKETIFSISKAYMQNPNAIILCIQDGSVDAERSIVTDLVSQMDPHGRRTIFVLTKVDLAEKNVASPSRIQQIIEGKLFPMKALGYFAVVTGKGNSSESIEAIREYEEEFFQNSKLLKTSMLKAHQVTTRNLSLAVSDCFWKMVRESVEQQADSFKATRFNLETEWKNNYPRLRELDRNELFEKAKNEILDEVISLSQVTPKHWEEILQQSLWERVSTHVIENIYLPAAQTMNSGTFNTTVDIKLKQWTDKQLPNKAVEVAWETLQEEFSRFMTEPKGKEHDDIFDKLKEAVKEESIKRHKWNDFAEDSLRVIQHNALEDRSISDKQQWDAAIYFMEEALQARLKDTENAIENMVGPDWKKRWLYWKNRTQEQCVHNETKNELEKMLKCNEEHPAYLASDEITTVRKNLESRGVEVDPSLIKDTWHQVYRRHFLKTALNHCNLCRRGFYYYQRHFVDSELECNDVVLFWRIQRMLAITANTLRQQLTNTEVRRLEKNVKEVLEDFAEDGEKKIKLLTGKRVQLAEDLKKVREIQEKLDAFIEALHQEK
UniProt Q460N5, whole entry, looked up: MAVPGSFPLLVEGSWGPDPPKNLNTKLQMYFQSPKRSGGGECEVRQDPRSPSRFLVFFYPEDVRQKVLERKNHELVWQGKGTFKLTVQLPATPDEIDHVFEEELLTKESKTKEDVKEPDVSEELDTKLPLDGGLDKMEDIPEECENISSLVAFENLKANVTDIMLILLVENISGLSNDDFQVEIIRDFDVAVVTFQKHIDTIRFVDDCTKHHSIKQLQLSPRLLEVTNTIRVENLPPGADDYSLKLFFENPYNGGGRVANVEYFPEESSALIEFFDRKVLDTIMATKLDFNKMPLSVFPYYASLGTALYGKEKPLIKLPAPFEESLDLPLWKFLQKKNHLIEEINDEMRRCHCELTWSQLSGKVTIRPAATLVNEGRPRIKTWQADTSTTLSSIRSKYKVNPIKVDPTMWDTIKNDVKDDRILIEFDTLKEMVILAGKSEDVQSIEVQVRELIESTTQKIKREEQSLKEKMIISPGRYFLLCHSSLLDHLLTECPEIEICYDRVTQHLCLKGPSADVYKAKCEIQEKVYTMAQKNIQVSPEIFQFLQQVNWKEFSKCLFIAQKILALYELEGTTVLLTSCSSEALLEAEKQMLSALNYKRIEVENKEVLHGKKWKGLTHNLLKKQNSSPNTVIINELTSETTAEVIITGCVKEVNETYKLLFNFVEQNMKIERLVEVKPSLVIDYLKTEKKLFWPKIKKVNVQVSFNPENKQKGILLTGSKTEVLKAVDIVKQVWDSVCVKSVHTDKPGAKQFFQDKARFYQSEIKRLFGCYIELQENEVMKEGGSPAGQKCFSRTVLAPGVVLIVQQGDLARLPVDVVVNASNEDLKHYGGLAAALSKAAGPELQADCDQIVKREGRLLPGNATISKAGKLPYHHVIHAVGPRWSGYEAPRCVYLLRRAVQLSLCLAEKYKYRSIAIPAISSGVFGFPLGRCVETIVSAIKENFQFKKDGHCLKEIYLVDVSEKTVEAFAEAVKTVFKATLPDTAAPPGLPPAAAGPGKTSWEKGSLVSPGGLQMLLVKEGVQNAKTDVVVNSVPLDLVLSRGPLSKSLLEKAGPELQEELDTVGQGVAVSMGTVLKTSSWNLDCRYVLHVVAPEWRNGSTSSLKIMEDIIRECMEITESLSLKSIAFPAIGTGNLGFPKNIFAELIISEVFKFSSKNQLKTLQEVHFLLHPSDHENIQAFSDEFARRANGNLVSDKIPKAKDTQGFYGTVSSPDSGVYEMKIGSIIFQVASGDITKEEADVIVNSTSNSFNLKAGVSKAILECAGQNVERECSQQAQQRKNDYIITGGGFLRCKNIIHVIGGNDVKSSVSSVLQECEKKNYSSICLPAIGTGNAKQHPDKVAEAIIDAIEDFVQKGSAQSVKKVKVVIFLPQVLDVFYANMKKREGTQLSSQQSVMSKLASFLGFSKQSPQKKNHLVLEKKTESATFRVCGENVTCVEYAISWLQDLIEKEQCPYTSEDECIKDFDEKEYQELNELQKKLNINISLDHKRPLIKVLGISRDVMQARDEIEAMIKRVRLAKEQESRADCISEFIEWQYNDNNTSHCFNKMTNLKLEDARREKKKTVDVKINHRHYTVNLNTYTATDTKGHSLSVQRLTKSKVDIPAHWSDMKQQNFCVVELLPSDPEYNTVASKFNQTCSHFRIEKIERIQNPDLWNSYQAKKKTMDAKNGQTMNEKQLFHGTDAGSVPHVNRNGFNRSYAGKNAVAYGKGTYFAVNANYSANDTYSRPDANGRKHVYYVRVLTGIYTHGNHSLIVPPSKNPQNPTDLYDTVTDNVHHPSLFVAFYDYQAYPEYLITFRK
UniProt Q96BN8, whole entry, looked up: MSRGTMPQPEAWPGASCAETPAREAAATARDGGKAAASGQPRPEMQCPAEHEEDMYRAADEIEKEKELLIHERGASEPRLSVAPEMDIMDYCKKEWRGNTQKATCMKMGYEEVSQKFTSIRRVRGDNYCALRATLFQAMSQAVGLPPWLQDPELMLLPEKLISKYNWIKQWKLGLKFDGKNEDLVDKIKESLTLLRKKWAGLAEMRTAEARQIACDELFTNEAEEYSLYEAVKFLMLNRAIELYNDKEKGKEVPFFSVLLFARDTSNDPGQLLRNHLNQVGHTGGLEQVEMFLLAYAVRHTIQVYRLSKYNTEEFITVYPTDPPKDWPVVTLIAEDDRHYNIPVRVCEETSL
UniProt Q99571: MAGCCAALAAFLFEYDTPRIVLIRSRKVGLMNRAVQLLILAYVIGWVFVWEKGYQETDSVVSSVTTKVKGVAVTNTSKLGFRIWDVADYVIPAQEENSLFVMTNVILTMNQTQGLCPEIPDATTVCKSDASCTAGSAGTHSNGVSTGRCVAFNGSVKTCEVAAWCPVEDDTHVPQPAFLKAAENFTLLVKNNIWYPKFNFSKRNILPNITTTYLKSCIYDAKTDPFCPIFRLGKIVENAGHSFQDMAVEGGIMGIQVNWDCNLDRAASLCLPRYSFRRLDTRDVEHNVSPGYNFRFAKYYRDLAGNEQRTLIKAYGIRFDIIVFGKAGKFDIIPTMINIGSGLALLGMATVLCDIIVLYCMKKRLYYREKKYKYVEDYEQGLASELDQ
UniProt Q9UNF0: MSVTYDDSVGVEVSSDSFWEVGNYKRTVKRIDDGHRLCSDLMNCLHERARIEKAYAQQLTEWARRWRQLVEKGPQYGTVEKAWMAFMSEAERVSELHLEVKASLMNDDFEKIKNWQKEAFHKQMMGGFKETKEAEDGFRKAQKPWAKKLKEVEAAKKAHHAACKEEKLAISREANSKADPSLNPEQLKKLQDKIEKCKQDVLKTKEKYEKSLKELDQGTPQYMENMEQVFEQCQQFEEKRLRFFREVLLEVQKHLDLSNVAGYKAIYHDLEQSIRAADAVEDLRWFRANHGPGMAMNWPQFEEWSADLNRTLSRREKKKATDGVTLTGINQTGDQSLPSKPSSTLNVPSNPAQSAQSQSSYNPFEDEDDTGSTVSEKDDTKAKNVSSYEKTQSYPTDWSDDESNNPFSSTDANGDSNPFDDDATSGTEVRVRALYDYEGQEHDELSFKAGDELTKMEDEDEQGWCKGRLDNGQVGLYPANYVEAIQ
UniProt O95340: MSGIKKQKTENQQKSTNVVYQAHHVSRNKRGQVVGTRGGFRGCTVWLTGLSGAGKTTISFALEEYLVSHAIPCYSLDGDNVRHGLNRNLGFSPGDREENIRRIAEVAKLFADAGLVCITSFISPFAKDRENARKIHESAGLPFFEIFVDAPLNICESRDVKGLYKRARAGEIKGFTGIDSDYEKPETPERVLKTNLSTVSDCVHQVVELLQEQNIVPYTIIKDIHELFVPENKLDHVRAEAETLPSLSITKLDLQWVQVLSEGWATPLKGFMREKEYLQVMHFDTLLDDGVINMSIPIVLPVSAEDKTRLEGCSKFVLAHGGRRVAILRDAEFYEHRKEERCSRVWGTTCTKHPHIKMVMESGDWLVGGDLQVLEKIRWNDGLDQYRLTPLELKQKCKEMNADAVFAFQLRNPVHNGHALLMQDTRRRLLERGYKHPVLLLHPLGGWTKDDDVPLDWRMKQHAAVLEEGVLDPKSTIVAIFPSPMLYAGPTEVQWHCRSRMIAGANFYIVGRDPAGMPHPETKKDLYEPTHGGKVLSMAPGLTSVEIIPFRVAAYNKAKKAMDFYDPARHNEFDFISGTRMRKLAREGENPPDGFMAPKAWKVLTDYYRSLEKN

Compound: Cc1cc(ccc1-c1ccccc1)C(=O)N1CCCN(CC1)C(=O)CCl [compound 10]
Experiment: probe-labelled cysteine peptide fold change vs DMSO (competition) (log2 fold change); higher = less target engagement (more negative = stronger competition)
Details: THP-1, incubation time: 4 h
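Further: competitive profiling in live THP-1 cells: cysteine peptides tagged with an iodoacetamide desthiobiotin (IA-DTB) probe, intensity after compound treatment relative to DMSO-treated cells.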

| Target | probe-labelled cysteine peptide fold change (10 µM) | probe-labelled cysteine peptide fold change (50 µM) |
| --- | --- | --- |
| PARN_O95453_543_LNPQCIPYTLQNHYYR (UniProt O95453) | -0.149 | 0.0448 |
| OSBPL8_Q9BZF1_729_NEEWSCK (UniProt Q9BZF1) | -0.0698 | 0.188 |
| PARP1_P09874_24_CSESIPK (UniProt P09874) | -0.00603 | -0.4 |
| OSGEP_Q9NPF4_110_PLVGVNHCIGHIEMGR (UniProt Q9NPF4) | 0.017 | 0.107 |
| P4HTM_Q9NXG6_156_PLLFEIPGFLTDEECR (UniProt Q9NXG6) | 0.372 | 0.492 |
| PA2G4_Q9UQ80_87_KGIAFPTSISVNNCVCHFSPLK (UniProt Q9UQ80) | 0.178 | -0.349 |
| OTX1_P32242_340_LNFNSPDCLDYK (UniProt P32242) | 0.0785 | 0.355 |
| PAN3_Q58A45_506_SSNFGYITSCYK (UniProt Q58A45) | -0.146 | 0.0558 |
| PAG1_Q9NWQ8_355_SPSSCNDLYATVK (UniProt Q9NWQ8) | -0.172 | -0.331 |
| PAFAH1B1_P43034_281_EHEHVVECISWAPESSYSSISEATGSETK (UniProt P43034) | -0.0287 | 0.0931 |
| ORC5_O43913_96_LNHLSSSEDGCSTEITCETFNDFVR (UniProt O43913) | 0.335 | 0.00516 |
| OTUD7B_Q6GQQ9_345_DSGGEAFAPIPFGGIYLPLEVPASQCHR (UniProt Q6GQQ9) | -0.0538 | 0.0712 |
| OSBPL1A_Q9BXW6_39_NEVIADINCK (UniProt Q9BXW6) | 0.149 | 0.0482 |
| OSBPL8_Q9BZF1_494_CLWIHPR (UniProt Q9BZF1) | -0.0195 | 0.0461 |
| OSBPL1A_Q9BXW6_182_TTELTALLNRPNPPDVNCSDQLGNTPLHCAAYR (UniProt Q9BXW6) | 0.0266 | -0.0898 |
| ORC3_Q9UBD5_158_LISQLMDCCVDIK (UniProt Q9UBD5) | -0.101 | -0.953 |
| OS9_Q13438_73_QRYECR (UniProt Q13438) | 0.0266 | 0.225 |
| OPA1_O60313_874_HFVDSELECNDVVLFWR (UniProt O60313) | 0.054 | 0.00842 |
| PARP14_Q460N5_739_QVWDSVCVK (UniProt Q460N5) | -0.0625 | -0.0386 |

| Target | probe-labelled cysteine peptide fold change (10 µM) | probe-labelled cysteine peptide fold change (50 µM) |
| --- | --- | --- |
| OTULIN_Q96BN8_215_QIACDELFTNEAEEYSLYEAVK (UniProt Q96BN8) | 0.000893 | -0.0215 |
| P2RX4_Q99571_270_AASLCLPR (UniProt Q99571) | -0.169 | -0.211 |
| PACSIN2_Q9UNF0_38_LCSDLMNCLHER (UniProt Q9UNF0) | 0.0702 | 0.108 |
| PAPSS2_O95340_155_KIHESAGLPFFEIFVDAPLNICESR (UniProt O95340) | -0.104 | -0.273 |
| OSBPL1A_Q9BXW6_340_EDWLEAIEEHSAYSTHYCSQDQLTDEEEEDTVSAADLKK (UniProt Q9BXW6) | 0.0682 | -0.017 |
| PARP1_P09874_908_SANYCHTSQGDPIGLILLGEVALGNMYELK (UniProt P09874) | 0.191 | 0.241 |
| OPA1_O60313_853_TALNHCNLCR (UniProt O60313) | -0.0933 | 0.00191 |
| OSBPL8_Q9BZF1_575_LTFLNRGEDYVMTMPYAHCK (UniProt Q9BZF1) | -0.113 | -0.211 |
| PAPSS2_O95340_350_VWGTTCTK (UniProt O95340) | -0.0315 | -0.256 |
| P4HB_P07237_400_NVFVEFYAPWCGHCK (UniProt P07237) | -0.267 | -0.626 |
| OTUB1_Q96FW1_91_KTRPDGNCFYR (UniProt Q96FW1) | -0.294 | -0.907 |
| OTUD4_Q01804_903_DCGSVSTVDEFPEAR (UniProt Q01804) | -0.343 | -0.257 |
| OXSM_Q9NWU1_327_CMAAALK (UniProt Q9NWU1) | -0.172 | 0.0191 |
| PANK4_Q9NVE7_308_SLLHMISNDIGQLACLHAR (UniProt Q9NVE7) | 0.027 | 0.157 |
| PACSIN2_Q9UNF0_163_AHHAACK (UniProt Q9UNF0) | 0.123 | -0.0694 |
| ORC3_Q9UBD5_10_GCFVFKPNSK (UniProt Q9UBD5) | -0.114 | -0.311 |
| PA2G4_Q9UQ80_85+87_GIAFPTSISVNNCVCHFSPLK (UniProt Q9UQ80) | 0.191 | -0.639 |
| PARP14_Q460N5_1265_AILECAGQNVER (UniProt Q460N5) | -0.328 | -0.27 |
| PAPSS2_O95340_155_IHESAGLPFFEIFVDAPLNICESR (UniProt O95340) | -0.395 | -0.241 |

Some of the entries above in another layout:
OTULIN_Q96BN8_215_QIACDELFTNEAEEYSLYEAVK (UniProt Q96BN8)
  probe-labelled cysteine peptide fold change (10 µM): 0.000893
  probe-labelled cysteine peptide fold change (50 µM): -0.0215
P2RX4_Q99571_270_AASLCLPR (UniProt Q99571)
  probe-labelled cysteine peptide fold change (10 µM): -0.169
  probe-labelled cysteine peptide fold change (50 µM): -0.211
PACSIN2_Q9UNF0_38_LCSDLMNCLHER (UniProt Q9UNF0)
  probe-labelled cysteine peptide fold change (10 µM): 0.0702
  probe-labelled cysteine peptide fold change (50 µM): 0.108
